A: 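Assay of Toxoplasma gondii numbers, read through their beta-galactosidase reporter with a colour substrate. Tested at 10 µM. The record gives no direction; the compounds picked for IC50 retests had high values, so higher reads as fewer parasites. About 67,000 compounds were tested under these conditions; 0.38% (about 260) showed 50% or more at least once.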
B: 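Histidine-tRNA ligase, Trypanosoma cruzi CL Brener (UniProt Q4DA54). Enzyme assay of histidyl-tRNA synthetase; the read-out is not stated. Concentration: 30 µM. The record gives no direction; compounds that gave an IC50 in retests scored well above the rest, so higher reads as stronger inhibition. About 69,000 compounds were tested under these conditions; 0.045% (about 31) showed 50% or more at least once.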

Chains of the proteins cited; added tags and fusions are not shown. Residues count along the entry.
UniProt Q4DA54, 1-478: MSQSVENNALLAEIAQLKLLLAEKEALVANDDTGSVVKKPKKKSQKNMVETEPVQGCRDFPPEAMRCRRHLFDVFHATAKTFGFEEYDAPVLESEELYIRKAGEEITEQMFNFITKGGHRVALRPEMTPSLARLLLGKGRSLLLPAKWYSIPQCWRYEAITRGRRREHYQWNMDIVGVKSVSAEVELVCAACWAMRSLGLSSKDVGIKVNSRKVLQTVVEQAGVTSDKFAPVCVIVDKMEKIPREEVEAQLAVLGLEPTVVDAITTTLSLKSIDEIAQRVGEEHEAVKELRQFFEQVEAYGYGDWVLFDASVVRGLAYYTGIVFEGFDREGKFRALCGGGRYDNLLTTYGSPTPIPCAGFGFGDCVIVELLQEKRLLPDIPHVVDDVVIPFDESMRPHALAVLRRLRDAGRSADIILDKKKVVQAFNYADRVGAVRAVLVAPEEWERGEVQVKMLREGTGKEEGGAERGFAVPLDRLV

The filed quantity is “Percent Effect” (%).
The record does not define 0% and 100%; most values in the screen are far below 50% and negative numbers occur (in some assays of this library far below -100).
The compounds are a random part of those screened.
A dash means the value is not listed here; it may have been measured.

For CCCNCc1ccc(OCc2ccc3c(c2)OCCO3)cc1 the result was B: 7.453%.
For Cc1ccnc(C2CCN(C(=O)CCn3ncc4ccccc43)C2)n1 (stereo not drawn) the result was A: 10.59%; B: 3.042%.
For O=C(C1CCCC1)N1CCCC([C@@H]2C[C@H](C(F)F)n3ncnc3N2)C1 (stereo partly drawn) the result was A: 11.3%; B: 9.579%.
For COCCCNC(=O)CN(C)C(=O)c1cc2cc(C)ccc2nc1C the result was A: 5.332%; B: 5.539%.
For CC(=O)N1CCC(CCc2ccnc(Nc3ccccn3)c2)CC1 the result was A: 3.53%; B: 2.273%.
For C[C@]1(O)CN(CCC(N)=O)CC[C@@H]1Oc1cccc(F)c1 the result was A: -1.695%; B: 6.593%.
For CN(C)CCOCC1CN(Cc2cccc(F)c2)Cc2nccn2C1.O=C(O)C(F)(F)F.O=C(O)C(F)(F)F (stereo not drawn) the result was A: 12.91%.
For NS(=O)(=O)CCCNC(=O)C1(c2cccc(Cl)c2)CC1 the result was A: 8.783%; B: 6.154%.
For COc1ccccc1C(=O)NCCCN1CCCC1C(=O)N(C)C (stereo not drawn) the result was A: -23.41%; B: 3.659%.
For [H][C@@]12CNC[C@]1([H])CN(C(=O)c1cc(-c3ccco3)nc3c(Cl)cccc13)C2 the result was A: 1.947%.
For O=c1[nH]cc(N2CCOCC2)c(=O)[nH]1 the result was A: -4.297%; B: 8.812%.
For CCc1n[nH]c(C2CN(CCS(C)(=O)=O)CCO2)n1 (stereo not drawn) the result was A: 0.753%; B: 3.944%.
For COc1cccc(CN2CCC3(CCN(c4ncc(F)cn4)CC3)C2)c1.O=C(O)C(F)(F)F the result was A: -4.598%.
For O=C(NCCc1cccs1)N1CCC[C@H]1CO the result was A: 4.452%; B: 3.947%.
For Cc1cc(NCCO)nc(-c2ccccc2O)n1 the result was A: 7.952%; B: 6.736%.
For COc1ccc2[nH]nc(CN3CCN(Cc4cccc(F)c4)CC3)c2c1 the result was A: -3.818%; B: 9.036%.
For CN1C(=O)C(C)(C)COc2cc(NS(=O)(=O)c3ccccc3F)ccc21 the result was A: 8.649%; B: 5.528%.
For C[C@@H]1CN(Cc2ccoc2)C[C@]12CCN(CC(=O)N(C)C)C2=O.O=C(O)C(F)(F)F the result was A: -16.01%.
For O=C(O)C(F)(F)F.O=C(c1cccnc1)N1C[C@@H](c2ccccc2)[C@@]2(CCNC2=O)C1 the result was A: -5.232%.
For CNS(=O)(=O)c1cnccc1N1CCN(C(C)C)CC1 the result was A: 7.186%; B: 1.754%.
For Cc1cnc(C(=O)N2CCCC(Cn3cc(CC(C)C)nn3)C2)cn1 (stereo not drawn) the result was A: 1.839%; B: 0%.
For O=C(Nc1cc2c(cc1Br)OCCO2)NC1CCS(=O)(=O)C1 (stereo not drawn) the result was A: 12.31%; B: 2.618%.
For CCCc1noc(CN2CCCCC2Cn2cncn2)n1 (stereo not drawn) the result was A: -19.72%; B: 8.284%.
For Fc1ccc(OCc2noc(CN3CCc4cncnc4C3)n2)cc1 the result was A: -14.68%; B: 19.39%.
For [H][C@@]12CCCC[C@]1(O)CCN(Cc1ccc(OCC(N)=O)c(Cl)c1)C2 the result was A: -8.638%.
For Cc1noc(C)c1CCC(=O)N1CCCC(n2ccnc2C)C1 (stereo not drawn) the result was A: 0.07496%; B: 0%.
For CN(C)CCN1CCCC12CCCN(C(=O)c1cccnc1)C2 (stereo not drawn) the result was B: 5.288%.
For Cc1ccc(N2CCCC(NCC(=O)NC(C3CC3)C3CC3)C2)nn1 (stereo not drawn) the result was A: -6.967%; B: 10.6%.
For NC1CCCCN(Cc2cc(C3CCCCC3)no2)C1 (stereo not drawn) the result was A: 1.246%; B: 4.865%.
For CC(C)Cc1cc(-c2cc(-c3ccc[nH]3)nc(N)c2C#N)n[nH]1 the result was A: 9.852%; B: 7.921%.
For Cc1ccc(NC2CCN(C(=O)COCC3CC3)CC2)nn1 the result was A: -42.09%; B: 0.2865%.
For Cc1ccc(N2CCCC(c3[nH]ncc3Cc3ccccc3)C2)nn1 (stereo not drawn) the result was A: 4.401%; B: 3.409%.
For COc1cc2c(cc1CN1CCCCC1CN1CCOCC1)CCC2 (stereo not drawn) the result was A: 8.511%; B: 1.064%.
For O=C(c1cscn1)N1CCCC(n2cncn2)C1 (stereo not drawn) the result was A: -29.2%; B: 2.006%.
For CN(C)c1cccc(C2CCN(C3COCC3O)CC2)n1 (stereo not drawn) the result was A: -0.969%; B: 4.887%.
For [H][C@@]12C[C@@H](C)O[C@]1([H])CN(C(=O)c1ccncn1)C2 the result was A: 14.57%.
For CCOCC1c2c(cnn2CC2CC2)CCN1Cc1nccs1.O=C(O)C(F)(F)F.O=C(O)C(F)(F)F (stereo not drawn) the result was A: -6.764%.
For Cc1ccc(SCCN(C)C(=O)c2cn([C@H]3CC[C@@H](N)CC3)nn2)cc1 the result was A: -0.2163%; B: 3.896%.
For CC(C)(C)C(=O)N[C@H]1C[C@@H](Cc2cc(CN3CCOCC3)on2)C1(C)C the result was A: 11.33%; B: 6.468%.
For Cc1c(CN(C)c2cc(C3CCCNC3)ncn2)[nH]c2ccccc12 (stereo not drawn) the result was A: 15.82%; B: 3.636%.
For Cc1nccn1CC1CCN(C(=O)Cc2ccccc2)CC1 the result was A: 2.243%; B: 1.205%.
For OCC1(O)CCN(Cc2noc(-c3ccccc3)n2)CC1 the result was A: -20.37%; B: 3.483%.
For COc1cccc(CN2CCCC2c2cccc(F)c2)c1OC (stereo not drawn) the result was A: 12.53%; B: -12.87%.
For Cc1ccc2c(c1)C(NC(=O)N(C)C)CC21CCN(CC2CC2)CC1.O=C(O)C(F)(F)F (stereo not drawn) the result was A: 4.765%.
For COc1ccc(CN(C)C2CCN(C(=O)C(C)C)CC2)c2cccnc12 the result was A: -1.027%; B: 7.895%.
For Cc1cc(C(=O)NC2(C#N)CCSCC2)n(C)n1 the result was A: 10.35%; B: 3.896%.
For O=C1CN(C(=O)c2cccc(C(F)(F)F)c2)CC(O)CN1CC1CC1 (stereo not drawn) the result was A: -22.73%; B: 2.247%.

3 of the entries, repeated:

SMILES,A,B
O=C1CN(C(=O)c2cccc(C(F)(F)F)c2)CC(O)CN1CC1CC1 (stereo not drawn),-22.73,2.247
O=C(C1CCCC1)N1CCCC([C@@H]2C[C@H](C(F)F)n3ncnc3N2)C1 (stereo partly drawn),11.3,9.579
CN(C)CCOCC1CN(Cc2cccc(F)c2)Cc2nccn2C1.O=C(O)C(F)(F)F.O=C(O)C(F)(F)F (stereo not drawn),12.91,-

The values are deposited in ChEMBL (CHEMBL3988442, “University of Dundee, Small-Polar-MMV Screening Library” (2021)).